# Source: the supplement of paper PMC3334620
# The full ranking holds about 33,000 sequences; the median of “E-score (-0.5 to 0.5)” is about -0.0059, and the highest 2% start at about 0.26. The list shows a part of the results.
# Target: T1, Cin5 (UniProt P40917)
# T1 sequence: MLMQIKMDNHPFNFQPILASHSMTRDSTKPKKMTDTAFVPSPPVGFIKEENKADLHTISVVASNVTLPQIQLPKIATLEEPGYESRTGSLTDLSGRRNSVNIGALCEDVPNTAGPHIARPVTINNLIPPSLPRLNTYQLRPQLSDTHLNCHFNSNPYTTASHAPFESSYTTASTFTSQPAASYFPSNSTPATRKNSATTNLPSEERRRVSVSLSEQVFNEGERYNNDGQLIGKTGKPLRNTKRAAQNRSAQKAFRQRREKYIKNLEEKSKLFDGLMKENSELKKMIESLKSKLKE
# Assay: PBM E-score (8-mer binding enrichment) (E-score (-0.5 to 0.5)); higher = stronger / more preferred TF binding
# Settings: protein concentration: 100 nM; construct: GST-full length
# Outline: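 Yeast transcription factors, full-length or as DNA-binding domains, were expressed with a GST tag using PURExpress in vitro transcription/translation. At about 100-200 nM they were applied to universal all-10-mer Agilent arrays, double-stranded by primer extension on fresh or once-stripped slides. Fluorescent anti-GST detected bound protein, and masliner normalised the scans. E-scores for ungapped eight-base words, pooled with reverse complements, came from the Universal PBM Analysis Suite.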
row,Sequence,PBM E-score
1,CCTACGAG,-0.168
2,CCTAGAGA,-0.119
3,AGATGCTG,-0.0757
4,GCGTGCCC,-0.158
5,GAAAGGTA,0.121
6,CTATCAAA,0.199
7,CCCCGAGC,-0.0314
8,CTCCGGGC,-0.164
9,TCAAGCCA,-0.0873
10,CACCTGGA,-0.0421
11,TCTTGTAA,0.078
12,CTCGGTTA,-0.0853
13,ACGGAAGG,-0.0907
14,AACATAAC,0.223
15,CCGATTAG,0.216
16,ATCCTGGG,-0.125
17,CCATTTAG,-0.0487
18,GGGCGCCA,0.0597
19,CCACCCTA,0.0333
20,CCATTTCG,-0.046
21,GACTCGGA,-0.142
22,CTTACTTC,0.218
23,CGAAAGTA,0.0557
24,GGTCTGAC,-0.169
25,CTGTCCAA,-0.0324

row,Sequence,PBM E-score
1,CCTAGTGA,-0.0994
2,ATTCAGAC,0.0804
3,CGTTTTTA,0.0643
4,GGGCATAC,-0.132
5,CTAAAGGC,-0.125
6,CTCTGTCA,-0.0678
7,ACTCGACA,0.0877
8,CTTTATAA,-0.0352
9,ACTGGTAT,-0.0253
10,ACCGGGTC,-0.121
11,ACATTTAC,0.0149
12,CGGCGTAG,-0.0989
13,ACAATTGC,0.0338
14,CTACGATC,-0.0823
15,ACGCTCAT,0.0547
16,CGCTACGC,-0.323
17,AAAGGGAC,-0.22
18,ATTTCGGG,0.0696
19,GGTCTGCA,-0.151
20,CGTTCCAA,-0.0441
21,TAAGAAAA,0.0216
22,GGTCCCCA,-0.234
23,GTTGAACA,-0.0915
24,AGCCCTCA,-0.18
25,GCCCGTAC,-0.239

row,Sequence,PBM E-score
1,CCACAAAC,0.0505
2,AAACTAGG,0.0204
3,CTCAAAAA,0.0313
4,CAGATGCG,-0.177
5,TTCGGCAA,-0.00562
6,GTTTCATA,0.116
7,AACTTCGG,0.126
8,CGCAACGA,0.0182
9,ATTTCAGA,-0.0549
10,CAGATTAA,0.169
11,GTCTGAAA,-0.0562
12,AACCGTAA,0.106
13,ACCCCAGA,0.101
14,AGCTGCCG,-0.0554
15,ACCCGCCA,0.0492
16,GTCTACAA,-0.236
17,AGACCCAG,-0.097
18,CTCGGACC,-0.0862
19,GAATAATC,0.221
20,ACAAGCAA,0.122
21,AAGGACGG,-0.153
22,CCGTTCCG,0.0649
23,CGATGTAC,0.109
24,CTAAGCGC,0.098
25,CAGCCTGC,-0.174

row,Sequence,PBM E-score
1,CATGATAG,0.0148
2,CCTTGCTC,-0.0589
3,CAAAGCGA,0.028
4,CGAACTTC,-0.0301
5,ATGCACAC,0.0898
6,AATTCGTG,-0.0217
7,AAGGGTGT,-0.0789
8,CCCACGGA,-0.0572
9,AGATTAAT,0.218
10,ATGGTACG,0.0949
11,GGTCTCAC,-0.167
12,AATACGGA,0.188
13,GGCGCCTA,-0.0895
14,CTTTGTTC,0.0999
15,AACGAGAG,0.0786
16,TAGAGCTA,-0.0785
17,CGCCGGAA,0.0331
18,AACCTTGA,0.077
19,ACCGGCCT,-0.101
20,CTGTCCCC,-0.121
21,GACACCAA,0.0301
22,CGCCCTAA,-0.18
23,GGCGTCCC,-0.138
24,ATAATCTA,0.242
25,ATAAGACC,0.0621

row,Sequence,PBM E-score
1,CAGCCAGC,-0.176
2,AGTGAACC,0.0709
3,CACGAAAG,0.047
4,ACCGCGCC,-0.0171
5,GTCTTAAA,-0.185
6,CATACGTC,0.0152
7,GACTGTCA,-0.16
8,CAAGGGAA,-0.129
9,CTTTAATC,0.043
10,CAGAAGTC,-0.0554
11,TATAGCAA,0.134
12,AAATCTAT,0.107
13,GCCCATAC,0.0443
14,TCCCCCAA,-0.332
15,TGGCGGAA,-0.0447
16,GGATTTAA,0.0513
17,ACCGGAAA,-0.0602
18,CTGTGATC,-0.0103
19,CAGAGCAA,-0.0278
20,CCGGAACC,0.0665
21,CATGACTC,-0.0741
22,CTGGTGCA,-0.173
23,GATTATAC,0.182
24,AAGCCAGG,-0.126
25,ATCCCCGC,0.0335

row,Sequence,PBM E-score
1,TGCTGCAA,0.0664
2,CCGACCAG,-0.0784
3,CTACTCGC,-0.00413
4,ATAGGTGA,0.00129
5,CAGAGTTA,0.184
6,CGACCGTA,-0.0637
7,CCACCCGA,0.0559
8,ACGATTGA,0.11
9,GGGTTCCA,-0.221
10,ACTGCAGG,-0.168
11,GAGCCCTC,-0.268
12,CTTCAAGC,-0.231
13,GTGCTATA,0.101
14,AGGCATAT,-0.0567
15,ATAGGAAC,-0.0175
16,CCGGCCCG,-0.185
17,GGTATACA,0.147
18,AAACAGAG,0.021
19,ATACCTTG,0.0672
20,TACGTTAA,0.086
21,AGAATCTC,-0.0705
22,CGTACCCA,-0.0177
23,GCTCATTA,0.075
24,GTTGGAAA,-0.0276
25,ATTACGGC,0.181

# Fetched one by one from the entries so far, seven records:
row,Sequence,PBM E-score
22,CGTACCCA,-0.0177
1,TGCTGCAA,0.0664
3,CTACTCGC,-0.00413
24,GTTGGAAA,-0.0276
15,ATAGGAAC,-0.0175
13,GTGCTATA,0.101
4,ATAGGTGA,0.00129

# (continued)

row,Sequence,PBM E-score
1,CATTTGCG,0.0375
2,AGTGCGAA,-0.0773
3,CTAGCCAA,0.139
4,ATCCCTCA,-0.121
5,AATACTCT,0.115
6,AGAAGACT,-0.152
7,ACGTCCAG,-0.105
8,ATAATTTA,0.332
9,CGCTTGTA,0.139
10,GAGTCACC,-0.246
11,GCCGGCAA,0.0652
12,ACCTAGGA,0.063
13,AAAGGGAG,-0.319
14,CTATTGTA,0.13
15,ACACTGGG,-0.0337
16,ATATCTTA,0.242
17,ACGCCAGG,-0.179
18,AACTTACT,-0.00245
19,GGAATGCC,0.0471
20,TCATCTCA,0.242
21,CCGATGTC,-0.0198
22,CAGCTAAC,-0.207
23,GCACCACA,-0.122
24,TAACGAGA,0.167
25,AGCACCAG,0.0145

row,Sequence,PBM E-score
1,CCGCCTCC,-0.27
2,AATAGGTA,0.207
3,CGACCTTA,0.061
4,AAGTTCTA,-0.0378
5,AAAACCAT,0.151
6,AGATGTGC,0.129
7,CGGTGGCA,-0.229
8,TTATTGAA,0.198
9,GCCGCTAA,-0.0216
10,ATTCATGG,0.0318
11,AGCTGTAC,-0.0637
12,CAATTCTA,0.0599
13,ACCTGCAA,-0.11
14,CGCCAAGA,-0.144
15,ATACATGA,0.0965
16,CCCATGGA,0.00052
17,CATTGAAA,0.0619
18,ATGATCAC,0.198
19,GGTCATTA,0.0493
20,AACATATT,0.251
21,ACCCGCAG,0.0669
22,AAACCTAC,0.198
23,ACGCCGCT,0.111
24,CACCGTGA,-0.169
25,CATAGTCC,-0.0546

row,Sequence,PBM E-score
1,GATCTGCA,-0.0344
2,TAATTTAA,0.184
3,AGAACCAT,0.0227
4,ACGCAAGC,0.121
5,TCTTCTAA,0.0284
6,AGCAGTTA,0.0901
7,AATACCTC,0.0347
8,CTTCTCTA,-0.153
9,AAGCCGCC,-0.129
10,ACTAAGGG,-0.174
11,AGAGTACC,-0.043
12,CCACTGCC,-0.0765
13,CTCAAGAA,-0.091
14,GGATGAAA,0.112
15,CATGGAAC,-0.133
16,CTTCTAGC,-0.24
17,GCATTAAA,0.0586
18,ATAACGCG,0.13
19,AACGCAAA,0.0702

# Some values from above.
# CCACCCTA – PBM E-score: 0.0333
# CCCCGAGC – PBM E-score: -0.0314
# AGCTGCCG – PBM E-score: -0.0554
